Data reported in the supplement of paper PMC10849652.
This is one part of the list.

By UniProt entry, the sequences of proteins in these tests, tags left out. Where a name states a change or a piece, a line headed by the entry shows the natural chain unless it says otherwise.
UniProt Q8TCS8: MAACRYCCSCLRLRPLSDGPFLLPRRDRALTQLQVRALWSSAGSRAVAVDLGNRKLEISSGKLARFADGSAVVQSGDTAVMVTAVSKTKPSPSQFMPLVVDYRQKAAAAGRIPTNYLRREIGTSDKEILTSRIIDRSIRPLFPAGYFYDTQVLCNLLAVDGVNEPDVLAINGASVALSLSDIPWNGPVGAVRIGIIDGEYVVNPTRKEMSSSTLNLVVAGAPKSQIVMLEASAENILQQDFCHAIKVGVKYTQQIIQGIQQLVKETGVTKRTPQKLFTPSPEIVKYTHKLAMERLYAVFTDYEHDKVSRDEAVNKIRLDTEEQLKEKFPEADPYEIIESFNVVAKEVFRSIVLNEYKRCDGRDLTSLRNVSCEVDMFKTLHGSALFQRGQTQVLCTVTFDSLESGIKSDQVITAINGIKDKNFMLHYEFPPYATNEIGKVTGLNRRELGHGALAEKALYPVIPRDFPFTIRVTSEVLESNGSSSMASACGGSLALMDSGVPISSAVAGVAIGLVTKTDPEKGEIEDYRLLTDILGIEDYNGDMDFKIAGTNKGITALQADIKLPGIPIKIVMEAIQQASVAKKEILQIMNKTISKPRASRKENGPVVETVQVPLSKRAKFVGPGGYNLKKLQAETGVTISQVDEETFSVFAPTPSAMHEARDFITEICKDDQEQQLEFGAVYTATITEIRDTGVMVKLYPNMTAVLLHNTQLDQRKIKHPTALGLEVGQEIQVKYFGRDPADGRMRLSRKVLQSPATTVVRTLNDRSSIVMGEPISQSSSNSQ
UniProt A5A3E0, whole entry, looked up: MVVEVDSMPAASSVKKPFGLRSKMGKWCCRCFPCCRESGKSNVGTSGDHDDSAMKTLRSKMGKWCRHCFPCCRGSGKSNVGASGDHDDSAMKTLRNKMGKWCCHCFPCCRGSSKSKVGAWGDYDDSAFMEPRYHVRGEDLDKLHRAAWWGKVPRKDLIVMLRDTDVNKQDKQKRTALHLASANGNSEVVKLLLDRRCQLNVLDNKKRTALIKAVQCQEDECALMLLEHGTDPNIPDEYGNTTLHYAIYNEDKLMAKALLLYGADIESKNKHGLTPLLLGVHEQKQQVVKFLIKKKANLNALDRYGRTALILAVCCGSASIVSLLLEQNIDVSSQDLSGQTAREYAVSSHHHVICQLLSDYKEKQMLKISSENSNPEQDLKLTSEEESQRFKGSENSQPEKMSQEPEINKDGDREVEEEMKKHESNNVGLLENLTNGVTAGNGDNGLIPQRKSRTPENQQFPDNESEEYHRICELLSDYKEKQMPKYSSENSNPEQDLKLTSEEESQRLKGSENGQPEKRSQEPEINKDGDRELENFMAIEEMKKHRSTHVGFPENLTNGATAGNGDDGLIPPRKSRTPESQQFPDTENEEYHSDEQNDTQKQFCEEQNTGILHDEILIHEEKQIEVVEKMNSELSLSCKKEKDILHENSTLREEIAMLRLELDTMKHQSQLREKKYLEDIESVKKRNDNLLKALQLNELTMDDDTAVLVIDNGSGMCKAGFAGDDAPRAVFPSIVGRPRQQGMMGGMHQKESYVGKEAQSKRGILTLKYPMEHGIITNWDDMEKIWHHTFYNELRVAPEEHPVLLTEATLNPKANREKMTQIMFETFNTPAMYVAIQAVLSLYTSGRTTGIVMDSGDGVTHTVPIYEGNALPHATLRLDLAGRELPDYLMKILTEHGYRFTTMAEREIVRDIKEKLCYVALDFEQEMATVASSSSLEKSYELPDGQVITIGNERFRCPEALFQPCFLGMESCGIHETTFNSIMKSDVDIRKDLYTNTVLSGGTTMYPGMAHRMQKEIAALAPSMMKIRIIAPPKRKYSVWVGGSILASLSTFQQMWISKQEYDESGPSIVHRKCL
UniProt Q9H2U2: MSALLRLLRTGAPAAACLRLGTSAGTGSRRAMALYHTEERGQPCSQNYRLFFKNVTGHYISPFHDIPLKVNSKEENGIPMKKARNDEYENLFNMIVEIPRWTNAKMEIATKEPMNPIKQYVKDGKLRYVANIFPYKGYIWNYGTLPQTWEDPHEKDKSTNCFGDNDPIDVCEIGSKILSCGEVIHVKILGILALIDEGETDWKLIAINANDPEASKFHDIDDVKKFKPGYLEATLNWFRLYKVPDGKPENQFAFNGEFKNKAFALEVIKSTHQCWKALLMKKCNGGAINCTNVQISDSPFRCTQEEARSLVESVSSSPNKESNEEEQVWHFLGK
UniProt Q92871: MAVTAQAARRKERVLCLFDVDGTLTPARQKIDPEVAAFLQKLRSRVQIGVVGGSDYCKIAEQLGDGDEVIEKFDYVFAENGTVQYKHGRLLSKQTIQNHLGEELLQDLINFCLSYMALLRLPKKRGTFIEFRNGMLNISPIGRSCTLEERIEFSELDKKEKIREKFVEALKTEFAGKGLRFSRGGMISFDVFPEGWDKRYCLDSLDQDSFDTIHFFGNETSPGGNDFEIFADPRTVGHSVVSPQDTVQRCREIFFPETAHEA
UniProt Q9H5K3: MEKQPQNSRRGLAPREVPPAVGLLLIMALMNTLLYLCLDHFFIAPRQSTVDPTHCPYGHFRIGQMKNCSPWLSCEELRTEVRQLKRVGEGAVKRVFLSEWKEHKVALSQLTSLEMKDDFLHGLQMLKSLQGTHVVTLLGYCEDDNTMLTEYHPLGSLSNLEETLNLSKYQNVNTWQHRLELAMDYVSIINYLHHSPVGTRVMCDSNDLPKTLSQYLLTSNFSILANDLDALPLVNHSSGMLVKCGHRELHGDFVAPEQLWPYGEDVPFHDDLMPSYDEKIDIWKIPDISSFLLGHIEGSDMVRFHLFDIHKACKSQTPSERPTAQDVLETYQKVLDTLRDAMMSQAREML
UniProt Q9NVU0: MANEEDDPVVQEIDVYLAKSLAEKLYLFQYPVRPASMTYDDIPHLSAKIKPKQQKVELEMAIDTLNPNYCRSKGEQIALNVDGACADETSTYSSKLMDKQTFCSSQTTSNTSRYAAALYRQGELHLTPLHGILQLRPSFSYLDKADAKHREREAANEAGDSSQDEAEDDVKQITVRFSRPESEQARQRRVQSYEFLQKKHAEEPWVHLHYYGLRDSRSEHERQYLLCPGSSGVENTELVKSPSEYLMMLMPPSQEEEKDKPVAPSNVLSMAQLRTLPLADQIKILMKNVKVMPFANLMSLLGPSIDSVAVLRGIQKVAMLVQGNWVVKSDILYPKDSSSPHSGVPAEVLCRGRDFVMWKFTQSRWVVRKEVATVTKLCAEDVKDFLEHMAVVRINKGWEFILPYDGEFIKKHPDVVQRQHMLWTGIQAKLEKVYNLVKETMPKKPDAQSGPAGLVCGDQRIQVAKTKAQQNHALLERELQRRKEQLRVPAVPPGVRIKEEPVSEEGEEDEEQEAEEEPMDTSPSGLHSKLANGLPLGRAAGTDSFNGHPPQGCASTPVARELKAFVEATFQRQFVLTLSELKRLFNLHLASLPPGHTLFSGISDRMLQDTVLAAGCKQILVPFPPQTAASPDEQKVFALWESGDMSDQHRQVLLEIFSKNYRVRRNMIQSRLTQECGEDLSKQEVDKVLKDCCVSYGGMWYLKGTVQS
UniProt Q8TF01: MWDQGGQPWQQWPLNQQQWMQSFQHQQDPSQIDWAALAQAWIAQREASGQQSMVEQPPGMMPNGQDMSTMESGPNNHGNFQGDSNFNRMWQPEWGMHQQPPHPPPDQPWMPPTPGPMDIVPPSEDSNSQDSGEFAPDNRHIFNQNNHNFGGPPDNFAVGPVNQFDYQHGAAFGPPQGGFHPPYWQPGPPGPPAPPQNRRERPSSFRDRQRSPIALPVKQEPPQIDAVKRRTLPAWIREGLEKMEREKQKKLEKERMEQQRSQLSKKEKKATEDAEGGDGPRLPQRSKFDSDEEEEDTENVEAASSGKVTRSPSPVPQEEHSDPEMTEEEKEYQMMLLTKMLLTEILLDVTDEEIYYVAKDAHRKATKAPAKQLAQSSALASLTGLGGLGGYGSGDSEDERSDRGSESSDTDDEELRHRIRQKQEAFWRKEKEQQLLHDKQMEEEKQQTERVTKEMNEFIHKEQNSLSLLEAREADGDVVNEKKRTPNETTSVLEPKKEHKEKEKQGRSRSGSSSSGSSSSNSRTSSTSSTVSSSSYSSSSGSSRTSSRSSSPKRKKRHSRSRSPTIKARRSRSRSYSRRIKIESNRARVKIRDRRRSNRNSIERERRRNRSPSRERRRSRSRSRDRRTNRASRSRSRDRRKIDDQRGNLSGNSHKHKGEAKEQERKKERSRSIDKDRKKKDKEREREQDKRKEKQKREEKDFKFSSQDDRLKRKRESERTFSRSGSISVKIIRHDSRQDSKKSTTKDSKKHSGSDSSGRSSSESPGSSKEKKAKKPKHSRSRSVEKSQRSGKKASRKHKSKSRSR
UniProt Q9Y2S7: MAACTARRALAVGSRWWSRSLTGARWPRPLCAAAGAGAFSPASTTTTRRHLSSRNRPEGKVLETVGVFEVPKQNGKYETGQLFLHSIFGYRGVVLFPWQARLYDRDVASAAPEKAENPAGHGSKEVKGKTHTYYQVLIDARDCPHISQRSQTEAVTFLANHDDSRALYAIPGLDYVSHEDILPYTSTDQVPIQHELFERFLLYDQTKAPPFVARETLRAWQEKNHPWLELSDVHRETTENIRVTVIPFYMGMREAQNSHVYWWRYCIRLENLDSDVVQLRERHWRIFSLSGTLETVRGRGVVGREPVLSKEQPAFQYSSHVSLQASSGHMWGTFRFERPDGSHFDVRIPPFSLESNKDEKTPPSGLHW
UniProt P13797: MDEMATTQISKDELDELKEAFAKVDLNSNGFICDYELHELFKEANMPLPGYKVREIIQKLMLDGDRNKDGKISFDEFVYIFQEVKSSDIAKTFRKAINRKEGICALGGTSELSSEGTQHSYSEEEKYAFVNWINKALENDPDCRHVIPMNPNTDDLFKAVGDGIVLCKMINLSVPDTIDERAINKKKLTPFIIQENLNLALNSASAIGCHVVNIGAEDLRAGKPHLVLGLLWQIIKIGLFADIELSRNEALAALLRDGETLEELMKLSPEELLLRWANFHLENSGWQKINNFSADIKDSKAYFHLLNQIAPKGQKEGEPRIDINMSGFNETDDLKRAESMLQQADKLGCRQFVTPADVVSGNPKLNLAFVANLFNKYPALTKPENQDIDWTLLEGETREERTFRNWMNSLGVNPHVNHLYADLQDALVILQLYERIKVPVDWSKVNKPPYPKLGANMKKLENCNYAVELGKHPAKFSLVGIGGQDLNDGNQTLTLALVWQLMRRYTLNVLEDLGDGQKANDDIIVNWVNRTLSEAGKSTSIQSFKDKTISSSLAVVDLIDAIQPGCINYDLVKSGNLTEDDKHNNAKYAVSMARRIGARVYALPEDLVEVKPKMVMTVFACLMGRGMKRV
UniProt Q6P1K2: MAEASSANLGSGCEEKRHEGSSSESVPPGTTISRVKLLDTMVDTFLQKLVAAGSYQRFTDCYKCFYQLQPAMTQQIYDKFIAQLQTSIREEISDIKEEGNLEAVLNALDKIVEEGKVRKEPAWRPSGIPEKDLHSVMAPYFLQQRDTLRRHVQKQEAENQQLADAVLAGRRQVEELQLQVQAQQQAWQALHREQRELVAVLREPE
UniProt Q8N490: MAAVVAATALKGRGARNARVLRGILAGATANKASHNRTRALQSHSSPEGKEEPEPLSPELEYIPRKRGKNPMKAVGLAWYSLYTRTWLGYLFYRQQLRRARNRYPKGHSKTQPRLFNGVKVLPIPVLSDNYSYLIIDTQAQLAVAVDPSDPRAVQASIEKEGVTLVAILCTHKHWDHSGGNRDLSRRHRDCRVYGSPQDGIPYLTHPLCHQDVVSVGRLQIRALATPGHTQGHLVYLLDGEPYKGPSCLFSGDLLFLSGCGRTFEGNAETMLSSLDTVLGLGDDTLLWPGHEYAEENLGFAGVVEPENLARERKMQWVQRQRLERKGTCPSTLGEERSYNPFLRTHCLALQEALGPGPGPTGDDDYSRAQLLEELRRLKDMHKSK
UniProt Q969H6: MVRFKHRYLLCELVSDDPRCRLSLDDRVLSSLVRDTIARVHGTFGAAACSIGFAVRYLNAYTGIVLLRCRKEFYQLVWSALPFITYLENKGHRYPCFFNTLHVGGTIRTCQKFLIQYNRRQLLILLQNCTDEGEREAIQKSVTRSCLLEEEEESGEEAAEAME
UniProt P62937, whole entry, looked up: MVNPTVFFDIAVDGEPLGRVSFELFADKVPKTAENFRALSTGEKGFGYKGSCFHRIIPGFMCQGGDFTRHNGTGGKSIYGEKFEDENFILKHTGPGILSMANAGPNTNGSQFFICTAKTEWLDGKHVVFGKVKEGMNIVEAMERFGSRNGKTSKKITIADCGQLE
UniProt Q9NR33: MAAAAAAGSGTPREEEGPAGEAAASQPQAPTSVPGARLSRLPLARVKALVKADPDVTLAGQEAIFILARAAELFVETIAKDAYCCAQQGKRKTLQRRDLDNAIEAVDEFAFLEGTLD
UniProt Q96CD2: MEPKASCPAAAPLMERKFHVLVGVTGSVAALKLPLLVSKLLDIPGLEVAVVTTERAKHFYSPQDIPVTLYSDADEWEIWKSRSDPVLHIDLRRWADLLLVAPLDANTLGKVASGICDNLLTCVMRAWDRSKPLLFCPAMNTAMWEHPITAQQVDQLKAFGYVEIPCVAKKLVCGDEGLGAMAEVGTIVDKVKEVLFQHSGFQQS

Columns and labels:
Assay in all cases: log2 fold change, soluble protein after heating vs DMSO (PISA); higher = thermal stabilisation; K562 cells, 10 uM, 30 min; active = over 0.2 and 3.5 SD of the protein, either way, in both replicates (recomputed)
[1] = compound: NC(=O)Nc1cc(-c2cccc(F)c2)sc1C(=O)N[C@H]1CCCNC1
Summary of the method: (§1)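 Thermal stability values are relative to control samples and come from duplicates. They are expressed as log2 fold changes. For measurement, K562 cells (2×10^6 cells/mL) received 10 μM compound for 30 min, and aliquots were heated for 3 min over 48°C-58°C, pooled, and extracted at 4°C in PBS with 0.5% NP-40. Soluble protein, the supernatant after 21,000xg for 90 min, was quantified by TMTpro 16plex LC-MS/MS with equalised channel sums.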

[2] = compound: NC(=O)c1cnc(N[C@@H]2CCCC[C@@H]2N)nc1Nc1cccc(-n2nccn2)c1
Summary of the method: as §1

[3] = compound: NC1(c2ccc(-c3nc4ccn5c(=O)[nH]nc5c4cc3-c3ccccc3)cc2)CCC1
Summary of the method: as §1

[4] = compound: NCC(=O)Nc1ccc(-n2nc(C(F)(F)F)cc2-c2ccc3c(ccc4ccccc43)c2)cc1
Summary of the method: as §1

[5] = compound: Nc1ccccc1NC(=O)c1ccc(CNC(=O)OCc2cccnc2)cc1 [entinostat]
Summary of the method: as §1

[6] = compound: O=C(CCCCCCC(=O)Nc1ccccc1)NO [vorinostat]
Summary of the method: as §1

[7] = compound: O=C(CCCCCCNC(=O)c1cnc(N(c2ccccc2)c2ccccc2Cl)nc1)NO [citarinostat]
Summary of the method: as §1

[8] = compound: O=C(O)c1ccc2c(c1)nc(Nc1cccc(Cl)c1)c1ccncc12 [silmitasertib]
Summary of the method: as §1

[9] = compound: O=C1NC(=O)C(c2cnc3ccccn23)=C1c1cn2c3c(cc(F)cc13)CN(C(=O)N1CCCCC1)CC2
Summary of the method: as §1

[10] = compound: c1cc(OCCN2CCCCC2)cc(-c2n[nH]c3ccc(-c4nnc[nH]4)cc23)c1
Summary of the method: as §1

[11] = compound: c1cn2cc(-c3ccc4cn[nH]c4c3)nc(Nc3ccc(N4CCOCC4)cc3)c2n1 [entospletinib]
Summary of the method: as §1

Target	log2 fold change [1]	log2 fold change [2]	log2 fold change [3]	log2 fold change [4]	log2 fold change [5]	log2 fold change [6]	log2 fold change [7]	log2 fold change [8]	log2 fold change [9]	log2 fold change [10]	log2 fold change [11]
PNPT1 (UniProt Q8TCS8)	inactive: 0.031	inactive: -0.014	inactive: -0.04	inactive: -0.077	inactive: 0.075	inactive: 0.063	inactive: 0.09	inactive: 0.001	inactive: -0.11	inactive: -0.006	inactive: -0.041
PLIN3 (UniProt O60664)	inactive: -0.009	inactive: -0.043	inactive: -0.069	inactive: 0.028	inactive: 0	inactive: 0.016	inactive: 0.013	inactive: -0.041	inactive: -0.016	inactive: -0.029	inactive: -0.011
POTEF (UniProt A5A3E0)	inactive: -0.017	inactive: -0.006	inactive: 0.026	inactive: 0	inactive: -0.008	inactive: -0.028	inactive: -0.004	inactive: 0.037	inactive: -0.079	inactive: -0.034	inactive: -0.018
PPA2 (UniProt Q9H2U2)	inactive: -0.023	inactive: -0.013	inactive: -0.055	inactive: -0.029	inactive: -0.002	inactive: -0.017	inactive: 0.041	inactive: -0.025	inactive: -0.037	inactive: -0.032	inactive: 0.033
PMM1 (UniProt Q92871)	inactive: 0.005	inactive: 0.006	inactive: -0.01	inactive: 0.002	inactive: -0.021	inactive: 0.113	inactive: 0.034	inactive: -0.005	inactive: 0.004	inactive: -0.012	active: -0.415
PLRG1 (UniProt O43660)	inactive: 0.042	inactive: -0.016	inactive: -0.003	inactive: -0.007	inactive: -0.008	inactive: -0.039	inactive: -0.022	inactive: 0.028	inactive: 0.112	inactive: -0.094	inactive: 0.037
POMK (UniProt Q9H5K3)	inactive: 0	inactive: 0.058	inactive: -0.173	inactive: -0.044	inactive: 0.045	inactive: 0.04	inactive: 0.105	inactive: 0.101	inactive: 0.017	inactive: -0.303	active: -0.293
POLR3A (UniProt O14802)	inactive: 0.156	inactive: -0.05	inactive: -0.222	inactive: 0	inactive: 0.106	inactive: -0.03	inactive: -0.101	inactive: 0.174	inactive: -0.011	inactive: -0.033	inactive: 0.066
POLR3E (UniProt Q9NVU0)	inactive: -0.05	inactive: -0.075	inactive: 0.013	inactive: -0.052	inactive: 0.032	inactive: 0.203	inactive: 0.085	inactive: 0.135	inactive: -0.051	inactive: -0.031	inactive: 0.107
PNISR (UniProt Q8TF01)	inactive: -0.017	inactive: 0.029	inactive: 0.036	inactive: 0.051	inactive: -0.027	inactive: -0.007	inactive: -0.004	inactive: -0.036	inactive: -0.022	inactive: -0.037	inactive: 0.006
PLOD1 isoform 2 (UniProt Q02809)	inactive: -0.004	inactive: 0.006	inactive: -0.018	inactive: 0.058	inactive: 0.003	inactive: -0.03	inactive: -0.008	inactive: 0.059	inactive: 0.047	inactive: -0.104	inactive: 0.041
PPIH (UniProt O43447)	inactive: -0.077	inactive: -0.037	inactive: -0.079	inactive: -0.064	inactive: 0.042	inactive: 0.034	inactive: 0.025	inactive: -0.009	inactive: -0.076	inactive: -0.01	inactive: 0.022
POLDIP2 (UniProt Q9Y2S7)	inactive: -0.024	inactive: -0.074	inactive: -0.125	inactive: -0.058	inactive: -0.005	inactive: 0.008	inactive: 0.046	inactive: 0.016	inactive: -0.112	inactive: -0.032	inactive: -0.011
POFUT2 (UniProt Q9Y2G5)	inactive: -0.013	inactive: 0.001	inactive: -0.052	inactive: 0.033	inactive: 0.024	inactive: -0.052	inactive: 0.014	inactive: 0.011	inactive: 0	inactive: -0.049	inactive: 0
PLS3 (UniProt P13797)	inactive: -0.07	inactive: -0.038	inactive: -0.023	inactive: -0.001	inactive: -0.035	inactive: -0.027	inactive: -0.007	inactive: 0.037	inactive: -0.075	inactive: -0.046	inactive: -0.045
PMF1 (UniProt Q6P1K2)	inactive: -0.163	inactive: -0.015	inactive: -0.072	inactive: 0.047	inactive: 0.141	inactive: 0.049	inactive: 0.076	inactive: 0.048	inactive: -0.029	inactive: 0.072	inactive: -0.017
POLDIP3 (UniProt Q9BY77)	inactive: 0.023	inactive: 0.038	inactive: -0.014	inactive: 0	inactive: -0.038	inactive: 0.033	inactive: 0.002	inactive: 0.039	inactive: 0.21	inactive: -0.004	inactive: -0.061
POLR2H (UniProt P52434)	inactive: -0.018	inactive: 0.001	inactive: -0.141	inactive: -0.108	inactive: 0.012	inactive: -0.099	inactive: 0.025	inactive: 0.045	inactive: -0.062	inactive: -0.101	inactive: 0.053
PNPO (UniProt Q9NVS9)	inactive: -0.018	inactive: -0.048	inactive: 0.021	inactive: 0.06	inactive: -0.013	inactive: -0.022	inactive: 0.024	inactive: -0.071	inactive: -0.094	inactive: -0.034	inactive: -0.016
PNKD isoform 2 (UniProt Q8N490)	inactive: -0.047	inactive: -0.083	inactive: 0.049	inactive: -0.016	inactive: -0.031	inactive: 0.025	inactive: 0.062	inactive: -0.166	inactive: -0.178	inactive: 0.016	inactive: -0.01
POP5 (UniProt Q969H6)	inactive: 0.061	inactive: 0.072	inactive: 0.003	inactive: 0.072	inactive: -0.033	inactive: 0.011	inactive: 0.021	inactive: 0.022	inactive: 0.011	inactive: -0.139	inactive: 0.048
PPIA (UniProt P62937)	inactive: -0.023	inactive: -0.02	inactive: -0.037	inactive: -0.044	inactive: 0.011	inactive: -0.026	inactive: 0.058	inactive: -0.04	inactive: -0.039	inactive: 0.033	inactive: 0.02
POLE4 (UniProt Q9NR33)	inactive: 0.045	inactive: -0.052	inactive: -0.006	inactive: -0.025	inactive: 0.13	inactive: 0	inactive: 0.085	inactive: -0.005	inactive: -0.115	inactive: 0.008	inactive: 0.074
PPCDC (UniProt Q96CD2)	inactive: 0.068	inactive: 0.005	inactive: -0.173	inactive: -0.009	inactive: -0.011	inactive: 0.036	inactive: 0.059	inactive: 0.016	inactive: 0.005	inactive: -0.038	inactive: -0.094
PLS1 (UniProt Q14651)	inactive: -0.046	inactive: -0.053	inactive: -0.114	inactive: -0.064	inactive: -0.008	inactive: 0.037	inactive: -0.034	inactive: 0.041	inactive: -0.024	inactive: -0.01	inactive: 0.07
PNKD isoform 3 (UniProt Q8N490)	inactive: 0.015	inactive: -0.032	inactive: -0.015	inactive: -0.013	inactive: -0.043	inactive: -0.026	inactive: 0.055	inactive: 0.002	inactive: -0.017	inactive: -0.023	inactive: 0.077
PPFIA2 (UniProt O75334)	inactive: 0.068	inactive: -0.152	inactive: 0.102	inactive: 0.084	inactive: -0.016	inactive: -0.005	inactive: 0.216	inactive: -0.009	inactive: 0.188	inactive: -0.143	inactive: 0.04

Reprinted at random: two records from the list, in no set order.
Target	log2 fold change [1]	log2 fold change [2]	log2 fold change [3]	log2 fold change [4]	log2 fold change [5]	log2 fold change [6]	log2 fold change [7]	log2 fold change [8]	log2 fold change [9]	log2 fold change [10]	log2 fold change [11]
POFUT2 (UniProt Q9Y2G5)	inactive: -0.013	inactive: 0.001	inactive: -0.052	inactive: 0.033	inactive: 0.024	inactive: -0.052	inactive: 0.014	inactive: 0.011	inactive: 0	inactive: -0.049	inactive: 0
PLS1 (UniProt Q14651)	inactive: -0.046	inactive: -0.053	inactive: -0.114	inactive: -0.064	inactive: -0.008	inactive: 0.037	inactive: -0.034	inactive: 0.041	inactive: -0.024	inactive: -0.01	inactive: 0.07
